# Measured values taken from PubChem BioAssay AID2284061 (EPA ToxCast).
# Amino acid sequences for entries named in this document (tags omitted). A change or cut given only in a name is not applied to a line headed by its entry.
# UniProt Q9Y243: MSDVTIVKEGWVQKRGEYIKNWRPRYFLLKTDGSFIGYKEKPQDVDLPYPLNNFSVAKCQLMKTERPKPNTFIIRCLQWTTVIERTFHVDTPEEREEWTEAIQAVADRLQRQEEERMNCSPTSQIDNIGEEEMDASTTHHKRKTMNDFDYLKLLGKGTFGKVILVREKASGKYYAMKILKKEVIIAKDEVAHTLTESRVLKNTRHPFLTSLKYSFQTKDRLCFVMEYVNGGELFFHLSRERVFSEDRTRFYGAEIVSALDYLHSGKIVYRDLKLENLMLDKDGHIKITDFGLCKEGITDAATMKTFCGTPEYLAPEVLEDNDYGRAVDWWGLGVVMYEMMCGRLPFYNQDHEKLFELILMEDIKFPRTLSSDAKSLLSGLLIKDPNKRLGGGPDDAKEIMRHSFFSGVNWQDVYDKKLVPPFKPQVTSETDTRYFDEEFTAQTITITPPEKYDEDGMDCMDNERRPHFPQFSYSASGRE
# This list was built around the results that the source calls inconclusive (neither active nor inactive); the mix of calls is not that of the screen. Potencies beside an inconclusive call are fits to weak or partial responses and may not hold up. Calls of active or inactive are those of the source. The calls were made as follows: active = hit-call score of the fitted dose curve at least 0.9, where 1 is the maximum; inconclusive = response in the unintended direction; inactive = score below 0.9.
# Target: human Akt3 (PKBgamma) AGC Kinase, AKT3 (gene 10000) (UniProt Q9Y243)
# Test: ERF_FR_ENZ_hAKT3: Eurofins (ERF) Enzymatic Radiometric [Km ATP] KinaseProfiler LeadHunter Assay for human Akt3 (PKBgamma) AGC Kinase
# Experimental: ERF_FR_ENZ_hAKT3 is a biochemical, single-readout assay that uses extracted gene-proteins in a cell-free assay. Measurements were taken 0.5 hour after chemical dosing in a 96-well plate. See Akt3 (PKBgamma) Human AGC Kinase Enzymatic LANCE Assay [Km ATP], Cerep.ERF_FR_ENZ_hAKT3 is an assay component calculated from the ERF_FR_ENZ_hAKT3 assay. It is designed to measure enzyme activity using a type of enzyme reporter as detected by fluorescence intensity with LANCE technology.Data from the assay component ERF_FR_ENZ_hAKT3 was analyzed at the assay endpoint, ERF_FR_ENZ_hAKT3, in the positive analysis fitting direction relative to DMSO as the negative control and baseline of activity. Using a type of enzyme reporter, loss-of-signal activity can be used to understand changes in enzymatic activity as they relate to gene AKT3. To generalize the intended target to other relatable targets, this assay endpoint is annotated to the kinase intended target family, where the subfamily is serine/threonine kinase.
# PKBb (h) is incubated with 8 mM MOPS pH 7.0, 0.2 mM EDTA, 30 uM […], 10 mM MgAcetate and [g- 33P]-ATP (specific activity and concentration as required). The reaction is initiated by the addition of the Mg/ATP mix. After incubation for 40 minutes at room temperature, the reaction is stopped by the addition of phosphoric acid to a concentration of 0.5%. […]
Compound,outcome,AC50
COc1cc(CCC(=O)CC(=O)CCc2ccc(O)c(OC)c2)ccc1O,inactive,
COc1cc(/C=C/C(=O)CC(=O)/C=C/c2ccc(O)c(OC)c2)ccc1O,,inconclusive: 1360 nM
